# Primary screen of a compound library

Data taken from ChEMBL document CHEMBL3988442, “University of Dundee, Small-Polar-MMV Screening Library” (2021).

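Whole-parasite assay of Trypanosoma brucei over 72 hours; the read-out is not stated. Tested at 30 µM. Direction is inferred from retests: higher values go with stronger inhibition. Values scatter widely below zero; nearly all retest evidence comes from the higher of the two concentrations used. Of about 64,000 compounds tested this way, about 940 (1.5%) reached 50% or more in at least one test.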

The filed quantity is “Percent Effect” (%). How 0% and 100% were set is not recorded. Most values in the screen are low, and negative values occur. The compounds are a random part of those screened.

* CCc1nc(CN2CCCN(C(=O)c3cnc[nH]3)CC2)cs1 : 42.37%
* COCCN1CCC(CN(CC2CCCO2)C(=O)Cc2cccs2)CC1 (centres unmarked) : -13.11%
* CCCC(Cn1cnc(-c2ccccc2)c1-c1cncn1CC)N(C)C (centres unmarked) : -22.59%
* COCCn1ccc2ccc(C(=O)O)cc21 : -14.18%
* O=C(O)C(F)(F)F.[H][C@]12CCN(C(=O)c3ccnnc3)CC[C@]1([H])N(CCOC)CCO2 : -10.95%
* c1nc(-c2nc(C3CCOC3)no2)cs1 (centres unmarked) : -32.33%
* CCN(C)S(=O)(=O)NCC1CCCN(Cc2ccccc2F)C1 (centres unmarked) : 15.01%
* Cc1nn(C)c(N(C)C)c1CNCc1cccc(OCCN(C)C)c1 : -81.06%
* CCc1cc(N2CCCNCC2)n2nc(C)c(C)c2n1 : -9.114%
* O=C(c1cnc(C2CC2)nc1)N1CCCC(c2nccs2)C1 (centres unmarked) : -13.87%
* COCC(=O)N1CCCC1c1nc(C)c2c(n1)N(CC(C)C)C(=O)CC2 (centres unmarked) : -0.1097%
* CC(C)N1CCC(Cc2cncc(-c3cc(F)ccc3C(=O)O)n2)CC1 : 5.336%
* [H][C@@]12CCCO[C@]1([H])[C@@H](N(C)Cc1cncnc1)CN2C(=O)COC : -85.11%
* CN(Cc1ccc(CCC(C)(C)O)cc1)Cc1cccnc1 : -10.52%
* O=C(O)C1(Oc2ccccc2)CCN(c2ccncc2)CC1 : -14.52%
* CC(C)Oc1ccc(CN2CCN3CCN(C)CC3C2)cc1CO (centres unmarked) : -27.3%
* CC1CCN(S(=O)(=O)NCC2CCOc3ccccc3C2)CC1 (centres unmarked) : 42.85%
* O=C(O)CC1COCCN1Cc1ccccc1OCCc1ccccc1 (centres unmarked) : -27.81%
* CC/C=C(\C)CN1CCC(CNC(=O)c2c[nH]c(=O)c(Cl)c2)C1 (centres unmarked) : -46.2%
* COc1cccc(CSc2nnc(C)n2CC(N)=O)c1 : -17.64%
* CCC(C)N(Cc1cccnc1)C(=O)c1ccc(NS(=O)(=O)CC)cc1 (centres unmarked) : 1.716%
* COC(=O)C(c1cc(F)ccc1F)N(C)C(=O)c1cnc(C)cn1 (centres unmarked) : 10.29%
* CNC(=O)C1(c2cnccn2)CCCN1C(=O)c1ccc(F)cc1 (centres unmarked) : -10.55%
* CCn1nnc2c1C(COC)CN(C(=O)Cc1cccs1)C2 (centres unmarked) : -5.216%
* CCOCCCNC(=O)C1(C)CCC(=O)N1c1ccccc1F (centres unmarked) : -1.022%
* CC(C)N1CCCN(c2nc(-c3cccnc3)nc3c2cnn3C)CC1 : -4.186%
* [H][C@]12CC[C@]([H])(CN(Cc3cscn3)C1)N(C(=O)c1nc(C)c[nH]1)C2 : 3.703%
* C[C@H]1CN(c2ccccn2)C[C@@]12CCN(c1cccnc1)C2=O.O=C(O)C(F)(F)F.O=C(O)C(F)(F)F : -33.35%
* CCc1nc2c(N3CCCC(c4nccn4CCOC)C3)ncnc2o1 (centres unmarked) : -23.51%
* O=C(Nc1ccc(CCN2CCSCC2)cc1)NC1CC1 : -23.01%
* COCC1c2c(cnn2C)CCN1C(=O)c1ccc2c(c1)OCO2 (centres unmarked) : -12.06%
* CC1CCN(Cn2nc(-c3ccc(F)cc3)oc2=O)CC1 : -61.68%
* CCn1nc(CNC(=O)C2CCCN(CC(N)=O)C2)c2ccccc21 (centres unmarked) : 14.87%
* CCN(Cc1ccc2c(c1)OCO2)C(=O)c1cccnc1O : 5.986%
* [H][C@@]12COC[C@]1(c1nc(C)no1)CN(C(=O)COC1CCCC1)C2 : -59.73%
* CCOc1cc(NC(=O)N2CCOC3(CCC3)C2)ccc1C : -36.54%
* O=C(O)CN1CCC(c2ccccc2)CC1 : -5.729%
* CC(C)(C)SCC(=O)NCCc1csc(N2CCCC2)n1 : -0.8864%
* O=S(=O)(c1ccc(-c2cnco2)cc1)N1CCC2(CCCNC2)C1 (centres unmarked) : -19.29%

The last 4 entries again:

{"compound": "CCOc1cc(NC(=O)N2CCOC3(CCC3)C2)ccc1C", "effect": -36.54}
{"compound": "O=C(O)CN1CCC(c2ccccc2)CC1", "effect": -5.729}
{"compound": "CC(C)(C)SCC(=O)NCCc1csc(N2CCCC2)n1", "effect": -0.8864}
{"compound": "O=S(=O)(c1ccc(-c2cnco2)cc1)N1CCC2(CCCNC2)C1", "stereo": "centres unmarked", "effect": -19.29}